Measured values reported in patent publication US20250074957A1 (GENERAL HOSPITAL, published 2025).

T1: Split CAR component B2 (BRET) (N-terminal LYN palmitoylation/myristoylation domain (membrane tethering via myristoyl/palmitoylation))
T1 construct: also called myrCD28c-CRBNΔ3; myrCD28-minCRBN3 (CRBNΔ3)
T1 chain: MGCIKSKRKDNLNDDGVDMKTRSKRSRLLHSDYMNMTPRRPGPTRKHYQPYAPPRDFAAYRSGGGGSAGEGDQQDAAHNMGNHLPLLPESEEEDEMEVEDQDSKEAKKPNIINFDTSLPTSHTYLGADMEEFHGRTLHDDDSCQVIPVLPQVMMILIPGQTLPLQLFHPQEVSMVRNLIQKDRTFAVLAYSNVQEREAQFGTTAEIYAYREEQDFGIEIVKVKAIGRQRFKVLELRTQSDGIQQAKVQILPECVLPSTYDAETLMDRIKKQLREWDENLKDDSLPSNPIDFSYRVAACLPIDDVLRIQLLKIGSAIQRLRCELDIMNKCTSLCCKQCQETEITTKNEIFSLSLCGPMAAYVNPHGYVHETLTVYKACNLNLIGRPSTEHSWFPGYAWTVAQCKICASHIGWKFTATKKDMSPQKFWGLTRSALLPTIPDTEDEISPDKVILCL


Molecular target: T1, Split CAR component B2 (BRET)
Assay: NanoBRET in 293T cells, 2 hours of pomalidomide at various concentrations with MG132; the Kd is a pomalidomide concentration, unit not given
Procedure: Cells were then trypsinized and seeded into 96 well plates, at 40,000 cells per well. The BRET assay was performed per manufacturer's instructions (Promega™). In brief, cells were incubated for 2 hours with varying concentrations of Pomalidomide or DMSO, 10 μM MG132, and 100 nM HaloTag NanoBRET 618 Ligand. NanoBRET Nano-Glo substrate was added and donor (460 nm) and acceptor (618 nm) emission were measured within 10 minutes (EnVision, Perkin Elmer). Mean corrected milliBRET units (mBU) was calculated.

Binder | Kd (pomalidomide-dependent dimerization)
FMC63-CD28-IKZF3 (HaloTag fusion for BRET) (other, not shown: large carriers, also called CD19scFv-CD28-IKZF3; anti-CD19-CD28-IKZF3 wild type (wt)) DIQMTQTTSSLSASLGDRVTISCRASQDISKYLNWYQQKPDGTVKLLIYHTSRLHSGVPSRFSGSGSGTDYSLTISNLEQEDIATYFCQQGNTLPYTFGGGTKLEITGSTSGSGKPGSGEGSTKGEVKLQESGPGLVAPSQSLSVTCTVSGVSLPDYGVSWIRQPPRKGLEWLGVIWGSETTYYNSALKSRLTIIKDNSKSQVFLKMNSLQTDDTAIYYCAKHYYYGGSYAMDYWGQGTSVTVSSAAAIEVMYPPPYLDNEKSNGTIIHVKGKHLCPSPLFPGPSKPFWVLVVVGGVLACYSLLVTVAFIIFWVRSKRSRLLHSDYMNMTPRRPGPTRKHYQPYAPPRDFAAYRSSGFNVLMVHKRSHTGERPFQCNQCGASFTQKGNLLRHIKLHTGEKPFKCHLCNYACQRRDAL | 53.4
FMC63-CD28-IKZF3 intracellular K0 (iK0) (HaloTag fusion for BRET) (other, not shown: large carriers, no signal peptide limits are stated for this entry; also called iK0 split receptor) DIQMTQTTSSLSASLGDRVTISCRASQDISKYLNWYQQKPDGTVKLLIYHTSRLHSGVPSRFSGSGSGTDYSLTISNLEQEDIATYFCQQGNTLPYTFGGGTKLEITGSTSGSGKPGSGEGSTKGEVKLQESGPGLVAPSQSLSVTCTVSGVSLPDYGVSWIRQPPRKGLEWLGVIWGSETTYYNSALKSRLTIIKDNSKSQVFLKMNSLQTDDTAIYYCAKHYYYGGSYAMDYWGQGTSVTVSSAAAIEVMYPPPYLDNEKSNGTIIHVKGKHLCPSPLFPGPSKPFWVLVVVGGVLACYSLLVTVAFIIFWVRSRRSRLLHSDYMNMTPRRPGPTRRHYQPYAPPRDFAAYRSSGFNVLMVHRRSHTGERPFQCNQCGASFTQRGNLLRHIRLHTGERPFRCHLCNYACQRRDAL | 46.3
